{
  "source": "patent US5587463A",
  "about": "“Texaphyrin macrocycles and metal complexes thereof” (Board of Regents, The University of Texas System, priority 1994, dated 1996)",
  "origin": "cited, not measured here",
  "settings": "cited from earlier work",
  "note": "For at least one compound, name, drawing or mass did not settle the structure.",
  "data": [
    {"smiles": "O=S(=O)([O-])c1ccc(-c2c3nc(c(-c4ccc(S(=O)(=O)[O-])cc4)c4ccc([n-]4)c(-c4ccc(S(=O)(=O)[O-])cc4)c4ccc([n-]4)c(-c4ccc(S(=O)(=O)[O-])cc4)c4nc2C=C4)C=C3)cc1.[Mn+3]", "note": "[[Mn(III)TPPS]^3 -]", "values": [
      {"measurement": "relaxivity (in words)", "result": "good relaxivity"}
    ]}
  ]
}
